# PubChem BioAssay AID1259254, NCATS, 2017
# Aim: 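Gene knock-downs that lead to re-replication, shown by excess G2 DNA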 (primary screen)
# System: human HCT116 colorectal cancer cells
# Knock-down reagent: single siRNA against human genes
# Duration: 3 days
# Measured: 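Nuclei stained with Hoechst and imaged; cell-cycle phase assigned by DNA content; G2 share scaled per plate, non-targeting siRNA 0%, GMNN siRNA 100%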
# Scale: G2 robust z-score and G2 cells, % of GMNN control: higher = more G2 cells, more excess DNA replication; raw share of cells in G2: higher = larger share of cells with G2 DNA content
# Call rule: 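Active siRNAs have a G2 robust z of 5 or more median absolute deviations over the median, which in these data means about 38% or higher of GMNN control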
# The whole screen tested about 59,000 reagents; this is an unselected part. About 1,550 of them (2.6%) count as active. 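G2 share is only a proxy for re-replication; each gene was hit by three separate siRNAs, and active genes were retested.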 The raw values are shown without normalisation. Unmarked entries are inactive. Reagents against one gene are numbered here. The record does not give: the amount of reagent.
target gene,reagent,G2 robust z-score,"G2 cells, % of GMNN control",raw share of cells in G2 (%)
KPNA2P2,1,-0.64,-1.54,2.6
KPNA2P2,2,0.062,3.4,4.94
KPNA2P2,3,-0.705,-1.99,2.66
SLC5A7,1,-0.49,-0.482,5.45
SLC5A7,2,-1.12,-4.92,2.44
SLC5A7,3,0.114,3.77,5.68
BSG,1,0.476,6.31,6.34
BSG,2,-0.683,-1.84,4.42
BSG,3,0.462,6.22,6.84
STK32B,1,-1.17,-5.25,2
STK32B,2,0.952,9.67,8.6
STK32B,3,-0.382,0.28,5.29
SLC33A1,1,-0.774,-2.48,3.41
SLC33A1,2,2.3,19.1,12
SLC33A1,3,-1.21,-5.52,2.73
RWDD4,1,1.64,14.5,8.81
RWDD4,2,-0.622,-1.41,2.49
RWDD4,3,-0.242,1.26,3.16
DIPK1B,1,-0.125,2.09,3.34
DIPK1B,2,-0.763,-2.4,3.27
DIPK1B,3,-0.353,0.481,3.25
AMN,1,-0.548,-0.89,3.81
AMN,2,0.871,9.1,6.15
AMN,3,-0.163,1.82,2.96

Records above whose gene name starts with D or d (3):
target gene,reagent,G2 robust z-score,"G2 cells, % of GMNN control",raw share of cells in G2 (%)
DIPK1B,1,-0.125,2.09,3.34
DIPK1B,2,-0.763,-2.4,3.27
DIPK1B,3,-0.353,0.481,3.25

Continued.
target gene,reagent,G2 robust z-score,"G2 cells, % of GMNN control",raw share of cells in G2 (%)
H2AC20,1,-0.392,0.208,5.22
H2AC20,2,0.651,7.54,6.89
H2AC20,3,-0.144,1.95,4.04
EIF5B,1,0.8,8.59,6.13
EIF5B,2,0.0282,3.17,6.04
EIF5B,3,7 (active),52.2,24.9
RNF149,1,-1.21,-5.56,2.79
RNF149,2,0.274,4.89,6.07
RNF149,3,0.4,5.78,8.4
ABAT,1,-0.472,-0.357,5.48
ABAT,2,-0.287,0.945,5.53
ABAT,3,0.399,5.77,5.53
ULK4P3,1,1.62,14.3,9.7
ULK4P3,2,2.93,23.6,11.4
ULK4P3,3,0.633,7.42,6.02
B3GNT8,1,1.12,10.8,9.19
B3GNT8,2,0.913,9.39,7.71
B3GNT8,3,0.675,7.72,9.24
CARINH,1,-0.562,-0.99,3.24
CARINH,2,2.87,23.2,12.2
CARINH,3,0.22,4.52,4.66
ADH1B,1,-0.532,-0.778,4.8
ADH1B,2,0.215,4.48,5.66
ADH1B,3,-1.33,-6.4,2.54
